Data as given in the supplement of paper PMC12823440, “Inhibitors supercharge kinase turnover through native proteolytic circuits” (Nature, 2025).
Counter-ions that a name gives are not always drawn. This is one part of the list. The calls rarely recur for the same compound in another form.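 In K562 cells expressing nanoluciferase-fused kinases, luminescence was recorded at 4 h intervals between 2 and 18 h, normalized as percent of control with DMSO at 100% and a positive control at 0%. A significant (2 sigma) signal drop marks a time point as decreased. The authors' rule for a hit is not shown and takes in more than the number of time points.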

Amino acid sequences for entries named in this document (tags omitted). A change or cut given only in a name is not applied to a line headed by its entry.
UniProt P31749: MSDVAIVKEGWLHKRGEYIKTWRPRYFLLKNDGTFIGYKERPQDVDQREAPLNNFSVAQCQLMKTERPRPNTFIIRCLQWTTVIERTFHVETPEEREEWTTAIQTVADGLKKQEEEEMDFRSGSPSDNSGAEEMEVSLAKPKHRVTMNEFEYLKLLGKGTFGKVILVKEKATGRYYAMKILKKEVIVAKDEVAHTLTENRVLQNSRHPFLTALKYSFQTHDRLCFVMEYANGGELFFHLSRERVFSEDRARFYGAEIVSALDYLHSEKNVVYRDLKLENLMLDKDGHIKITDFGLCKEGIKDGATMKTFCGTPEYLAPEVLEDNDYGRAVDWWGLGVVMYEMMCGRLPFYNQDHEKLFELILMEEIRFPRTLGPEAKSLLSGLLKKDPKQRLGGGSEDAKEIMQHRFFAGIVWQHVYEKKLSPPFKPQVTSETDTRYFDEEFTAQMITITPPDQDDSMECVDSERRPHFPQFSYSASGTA
UniProt Q9UM73: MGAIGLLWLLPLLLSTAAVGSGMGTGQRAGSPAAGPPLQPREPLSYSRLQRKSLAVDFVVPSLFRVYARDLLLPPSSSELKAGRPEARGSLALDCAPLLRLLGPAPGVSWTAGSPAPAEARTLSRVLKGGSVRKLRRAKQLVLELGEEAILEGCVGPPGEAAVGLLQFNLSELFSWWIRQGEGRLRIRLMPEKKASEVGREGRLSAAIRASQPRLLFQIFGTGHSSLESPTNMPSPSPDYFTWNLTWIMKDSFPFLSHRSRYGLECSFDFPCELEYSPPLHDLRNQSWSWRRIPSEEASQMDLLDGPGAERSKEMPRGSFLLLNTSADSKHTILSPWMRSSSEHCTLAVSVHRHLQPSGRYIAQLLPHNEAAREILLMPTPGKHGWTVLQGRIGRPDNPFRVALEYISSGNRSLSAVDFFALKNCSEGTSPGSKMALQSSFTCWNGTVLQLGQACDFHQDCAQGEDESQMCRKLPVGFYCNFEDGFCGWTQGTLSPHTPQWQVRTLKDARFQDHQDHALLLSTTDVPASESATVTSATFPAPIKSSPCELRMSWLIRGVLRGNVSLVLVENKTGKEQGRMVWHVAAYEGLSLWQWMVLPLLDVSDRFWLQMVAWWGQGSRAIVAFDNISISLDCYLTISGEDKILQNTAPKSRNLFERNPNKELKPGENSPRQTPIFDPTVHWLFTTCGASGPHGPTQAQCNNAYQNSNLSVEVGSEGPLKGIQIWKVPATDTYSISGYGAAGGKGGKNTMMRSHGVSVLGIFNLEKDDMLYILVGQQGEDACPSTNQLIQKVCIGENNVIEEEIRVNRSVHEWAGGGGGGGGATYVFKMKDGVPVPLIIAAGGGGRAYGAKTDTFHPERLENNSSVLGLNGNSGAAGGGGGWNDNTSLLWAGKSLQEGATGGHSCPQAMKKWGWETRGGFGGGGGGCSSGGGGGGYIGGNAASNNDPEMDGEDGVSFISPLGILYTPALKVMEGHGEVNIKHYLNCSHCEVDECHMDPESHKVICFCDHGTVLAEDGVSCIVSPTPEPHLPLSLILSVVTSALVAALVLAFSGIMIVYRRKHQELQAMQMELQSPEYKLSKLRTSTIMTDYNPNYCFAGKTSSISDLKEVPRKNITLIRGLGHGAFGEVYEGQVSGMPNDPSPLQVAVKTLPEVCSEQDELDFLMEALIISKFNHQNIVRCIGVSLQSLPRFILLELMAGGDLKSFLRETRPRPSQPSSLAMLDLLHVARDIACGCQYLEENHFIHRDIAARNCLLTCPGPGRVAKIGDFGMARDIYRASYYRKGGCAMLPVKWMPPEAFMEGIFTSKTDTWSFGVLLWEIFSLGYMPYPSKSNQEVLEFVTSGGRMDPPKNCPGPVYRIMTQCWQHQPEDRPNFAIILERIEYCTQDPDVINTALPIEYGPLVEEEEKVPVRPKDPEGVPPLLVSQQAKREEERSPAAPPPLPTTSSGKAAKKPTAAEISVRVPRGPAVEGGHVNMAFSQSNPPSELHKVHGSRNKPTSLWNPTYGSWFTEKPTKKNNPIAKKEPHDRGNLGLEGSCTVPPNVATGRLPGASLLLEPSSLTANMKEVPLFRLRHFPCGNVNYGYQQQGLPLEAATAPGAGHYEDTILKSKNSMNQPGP
UniProt P10398: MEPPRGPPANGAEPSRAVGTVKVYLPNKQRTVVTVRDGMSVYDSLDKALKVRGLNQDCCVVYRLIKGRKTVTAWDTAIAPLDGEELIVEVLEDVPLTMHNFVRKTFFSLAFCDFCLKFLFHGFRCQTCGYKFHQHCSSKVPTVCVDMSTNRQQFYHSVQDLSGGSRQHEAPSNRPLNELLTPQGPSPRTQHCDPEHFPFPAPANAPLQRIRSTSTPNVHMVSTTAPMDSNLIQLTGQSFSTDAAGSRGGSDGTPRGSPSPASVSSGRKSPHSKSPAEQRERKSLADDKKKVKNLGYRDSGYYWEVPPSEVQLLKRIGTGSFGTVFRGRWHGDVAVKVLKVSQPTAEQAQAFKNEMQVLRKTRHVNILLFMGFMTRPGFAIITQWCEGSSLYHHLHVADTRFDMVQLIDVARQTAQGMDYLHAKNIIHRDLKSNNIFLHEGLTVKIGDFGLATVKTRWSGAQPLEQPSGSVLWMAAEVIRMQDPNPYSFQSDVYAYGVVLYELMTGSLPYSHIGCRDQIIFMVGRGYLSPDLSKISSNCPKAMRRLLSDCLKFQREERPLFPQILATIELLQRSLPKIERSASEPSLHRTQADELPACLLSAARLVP
UniProt O14965: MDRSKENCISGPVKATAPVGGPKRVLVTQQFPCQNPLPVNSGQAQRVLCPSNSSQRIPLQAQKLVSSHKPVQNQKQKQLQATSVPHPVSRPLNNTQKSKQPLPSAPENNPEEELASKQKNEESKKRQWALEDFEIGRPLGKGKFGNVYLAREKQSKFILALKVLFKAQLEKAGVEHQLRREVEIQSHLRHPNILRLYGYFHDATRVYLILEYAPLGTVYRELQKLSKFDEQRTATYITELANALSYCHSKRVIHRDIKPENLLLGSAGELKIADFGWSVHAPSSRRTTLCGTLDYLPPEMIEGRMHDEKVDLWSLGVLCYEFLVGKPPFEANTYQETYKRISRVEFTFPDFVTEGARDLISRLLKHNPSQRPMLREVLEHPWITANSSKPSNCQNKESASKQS
UniProt Q96GD4, whole entry: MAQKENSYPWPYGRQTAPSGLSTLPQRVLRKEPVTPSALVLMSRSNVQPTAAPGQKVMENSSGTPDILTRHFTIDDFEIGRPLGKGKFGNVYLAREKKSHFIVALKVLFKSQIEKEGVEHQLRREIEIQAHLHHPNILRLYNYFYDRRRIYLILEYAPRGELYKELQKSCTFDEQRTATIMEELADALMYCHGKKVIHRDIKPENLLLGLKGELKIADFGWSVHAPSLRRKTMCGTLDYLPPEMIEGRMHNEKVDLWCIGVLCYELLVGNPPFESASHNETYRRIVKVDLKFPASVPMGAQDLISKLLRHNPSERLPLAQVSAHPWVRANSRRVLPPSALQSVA
UniProt Q9UQB9: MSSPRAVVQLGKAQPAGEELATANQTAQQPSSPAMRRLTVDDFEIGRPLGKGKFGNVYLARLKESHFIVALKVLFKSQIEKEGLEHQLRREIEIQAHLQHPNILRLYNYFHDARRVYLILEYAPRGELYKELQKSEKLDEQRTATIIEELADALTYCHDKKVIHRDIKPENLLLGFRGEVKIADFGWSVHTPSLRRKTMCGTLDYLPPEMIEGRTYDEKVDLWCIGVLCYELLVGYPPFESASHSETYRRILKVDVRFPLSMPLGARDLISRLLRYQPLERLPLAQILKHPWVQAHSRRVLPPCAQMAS
UniProt P51813: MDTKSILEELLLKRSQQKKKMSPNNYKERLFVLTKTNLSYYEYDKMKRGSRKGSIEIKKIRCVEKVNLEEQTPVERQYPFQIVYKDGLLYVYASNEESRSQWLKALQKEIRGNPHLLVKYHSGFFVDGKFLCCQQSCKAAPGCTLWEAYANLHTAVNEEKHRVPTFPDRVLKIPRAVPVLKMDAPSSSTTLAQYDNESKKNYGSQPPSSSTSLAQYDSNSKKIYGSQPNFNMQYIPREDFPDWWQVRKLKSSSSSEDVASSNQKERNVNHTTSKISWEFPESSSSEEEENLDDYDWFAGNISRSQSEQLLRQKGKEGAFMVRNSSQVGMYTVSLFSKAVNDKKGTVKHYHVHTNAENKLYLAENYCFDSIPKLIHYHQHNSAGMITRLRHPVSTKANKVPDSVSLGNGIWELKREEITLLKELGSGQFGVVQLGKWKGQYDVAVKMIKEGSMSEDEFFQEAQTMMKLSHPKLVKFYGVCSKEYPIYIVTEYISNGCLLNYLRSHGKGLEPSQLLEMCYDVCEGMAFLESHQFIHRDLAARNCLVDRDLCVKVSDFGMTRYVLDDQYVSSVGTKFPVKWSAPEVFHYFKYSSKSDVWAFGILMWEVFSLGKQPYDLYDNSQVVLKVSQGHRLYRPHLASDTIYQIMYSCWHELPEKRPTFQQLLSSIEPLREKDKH
UniProt P15056, whole entry, looked up: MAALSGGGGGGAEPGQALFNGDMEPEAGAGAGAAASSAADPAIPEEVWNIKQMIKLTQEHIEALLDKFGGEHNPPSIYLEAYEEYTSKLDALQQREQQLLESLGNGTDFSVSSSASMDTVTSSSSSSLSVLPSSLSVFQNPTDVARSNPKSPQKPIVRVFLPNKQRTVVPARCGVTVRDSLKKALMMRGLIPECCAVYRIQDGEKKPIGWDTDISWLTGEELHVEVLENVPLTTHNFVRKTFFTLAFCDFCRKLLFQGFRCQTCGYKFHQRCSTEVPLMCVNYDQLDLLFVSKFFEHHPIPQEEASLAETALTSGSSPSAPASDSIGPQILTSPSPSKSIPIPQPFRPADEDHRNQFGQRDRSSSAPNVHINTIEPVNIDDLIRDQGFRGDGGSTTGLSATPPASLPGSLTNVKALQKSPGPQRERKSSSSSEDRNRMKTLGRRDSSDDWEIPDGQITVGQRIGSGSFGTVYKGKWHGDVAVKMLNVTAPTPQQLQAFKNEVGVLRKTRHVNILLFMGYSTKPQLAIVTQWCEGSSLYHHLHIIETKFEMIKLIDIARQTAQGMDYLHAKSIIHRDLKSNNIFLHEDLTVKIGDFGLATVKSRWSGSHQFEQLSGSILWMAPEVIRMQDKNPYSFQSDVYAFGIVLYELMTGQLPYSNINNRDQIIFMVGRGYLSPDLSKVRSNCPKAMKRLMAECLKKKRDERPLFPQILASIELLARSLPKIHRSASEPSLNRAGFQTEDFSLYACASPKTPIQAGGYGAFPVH
UniProt P51451: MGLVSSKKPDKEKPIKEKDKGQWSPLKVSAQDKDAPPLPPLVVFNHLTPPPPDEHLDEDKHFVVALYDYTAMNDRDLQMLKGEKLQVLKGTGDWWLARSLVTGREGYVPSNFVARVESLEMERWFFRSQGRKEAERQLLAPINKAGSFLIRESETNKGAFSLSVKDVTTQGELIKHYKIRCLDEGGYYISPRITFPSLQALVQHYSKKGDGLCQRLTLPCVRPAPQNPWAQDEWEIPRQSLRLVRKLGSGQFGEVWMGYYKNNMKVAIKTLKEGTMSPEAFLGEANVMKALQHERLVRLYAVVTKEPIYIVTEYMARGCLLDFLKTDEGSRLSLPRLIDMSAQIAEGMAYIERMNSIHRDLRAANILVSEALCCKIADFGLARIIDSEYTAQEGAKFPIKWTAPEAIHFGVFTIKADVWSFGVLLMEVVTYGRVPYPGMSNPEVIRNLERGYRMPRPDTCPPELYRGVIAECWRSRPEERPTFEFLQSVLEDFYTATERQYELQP

How the values were obtained:
Assay in all cases: kinase-Nluc reporter destabilization hit call (1 = scored as downregulated) (binary); higher = compound decreases kinase abundance
Settings in all cases: K562, 2-18 h
[1] = target: ABL1 (UniProt P00519)
[2] = target: AKT1 (UniProt P31749)
[3] = target: ALK (UniProt Q9UM73)
[4] = target: ARAF (UniProt P10398)
[5] = target: AURKA (UniProt O14965)
[6] = target: AURKB (UniProt Q96GD4)
[7] = target: AURKC (UniProt Q9UQB9)
[8] = target: BMX (UniProt P51813)
[9] = target: BRAF (UniProt P15056)
[10] = target: BLK (UniProt P51451)

Measured: kinase-Nluc reporter destabilization hit call

COc1ccc(CNC(=O)Nc2ncc([N+](=O)[O-])s2)cc1
inactive: [1]; 2.5 µM 0 | [2]; 2.5 µM 0 | [3]; 2.5 µM 0 | [4]; 2.5 µM 0 | [5]; 2.5 µM 0 | [6]; 2.5 µM 0 | [7]; 2.5 µM 0 | [8]; 2.5 µM 0 | [9]; 2.5 µM 0

NC(=O)c1c(OCc2c(F)cc(Br)cc2F)nsc1NC(=O)NCCCCN1CCCC1
inactive: [1]; 2.5 µM 0 | [2]; 2.5 µM 0 | [3]; 2.5 µM 0 | [4]; 2.5 µM 0 | [5]; 2.5 µM 0 | [6]; 2.5 µM 0 | [7]; 2.5 µM 0 | [8]; 2.5 µM 0

Fc1ccc(-c2nc(-c3ccc4ccccc4c3F)[nH]c2-c2ccncc2)cc1
inactive: [1]; 10 µM 0 | [2]; 10 µM 0 | [3]; 10 µM 0 | [4]; 10 µM 0 | [5]; 10 µM 0 | [7]; 10 µM 0 | [10]; 10 µM 0 | [8]; 10 µM 0 | [9]; 10 µM 0

3 compounds out of the list, ordered by molar mass, ascending.
COc1ccc(CNC(=O)Nc2ncc([N+](=O)[O-])s2)cc1
inactive: [1]; 2.5 µM 0 | [2]; 2.5 µM 0 | [3]; 2.5 µM 0 | [4]; 2.5 µM 0 | [5]; 2.5 µM 0 | [6]; 2.5 µM 0 | [7]; 2.5 µM 0 | [8]; 2.5 µM 0 | [9]; 2.5 µM 0

Fc1ccc(-c2nc(-c3ccc4ccccc4c3F)[nH]c2-c2ccncc2)cc1
inactive: [1]; 10 µM 0 | [2]; 10 µM 0 | [3]; 10 µM 0 | [4]; 10 µM 0 | [5]; 10 µM 0 | [7]; 10 µM 0 | [10]; 10 µM 0 | [8]; 10 µM 0 | [9]; 10 µM 0

NC(=O)c1c(OCc2c(F)cc(Br)cc2F)nsc1NC(=O)NCCCCN1CCCC1
inactive: [1]; 2.5 µM 0 | [2]; 2.5 µM 0 | [3]; 2.5 µM 0 | [4]; 2.5 µM 0 | [5]; 2.5 µM 0 | [6]; 2.5 µM 0 | [7]; 2.5 µM 0 | [8]; 2.5 µM 0

Going on with the list.

Cn1cc(/C=C2\C(=O)Nc3cccnc32)c2ccccc21
inactive: [1]; 10 µM 0 | [2]; 10 µM 0 | [3]; 10 µM 0 | [4]; 10 µM 0 | [5]; 10 µM 0 | [6]; 10 µM 0 | [7]; 10 µM 0 | [8]; 10 µM 0 | [9]; 10 µM 0

CN1CCN(c2nc(C3=C(c4c[nH]c5ccccc45)C(=O)NC3=O)c3ccccc3n2)CC1 [Sotrastaurin]
inactive: [1]; 2.5 µM 0 | [2]; 2.5 µM 0 | [3]; 2.5 µM 0 | [4]; 2.5 µM 0 | [5]; 2.5 µM 0 | [6]; 2.5 µM 0 | [7]; 2.5 µM 0 | [8]; 2.5 µM 0 | [9]; 2.5 µM 0

C[C@@H]1CN(C(=O)Nc2ccc(-c3nc(N4CCOCC4)c4cnn(CCCCCCC(=O)NO)c4n3)cc2)CCO1 [HDACs/mTOR Inhibitor 1]
inactive: [1]; 10 µM 0 | [2]; 10 µM 0 | [3]; 10 µM 0 | [4]; 10 µM 0 | [6]; 10 µM 0 | [7]; 10 µM 0 | [10]; 10 µM 0 | [8]; 10 µM 0 | [9]; 10 µM 0

O=C1Cc2c([nH]c3ccc(Br)cc23)-c2ccccc2N1 [Kenpaullone]
inactive: [1]; 10 µM 0 | [2]; 10 µM 0 | [3]; 10 µM 0 | [4]; 10 µM 0 | [5]; 10 µM 0 | [6]; 10 µM 0 | [7]; 10 µM 0 | [8]; 10 µM 0 | [9]; 10 µM 0

Nc1ncnc2n[nH]c(-c3ccc(Oc4ccccc4)cc3)c12 [Ibrutinib deacryloylpiperidine]
inactive: [2]; 10 µM 0 | [3]; 10 µM 0 | [4]; 10 µM 0 | [5]; 10 µM 0 | [6]; 10 µM 0 | [7]; 10 µM 0 | [10]; 10 µM 0 | [8]; 10 µM 0 | [9]; 10 µM 0

Cc1cc2c(F)c(Oc3ncnn4cc(OC[C@@H](C)O)c(C)c34)ccc2[nH]1 [Brivanib]
inactive: [2]; 10 µM 0 | [3]; 10 µM 0 | [4]; 10 µM 0 | [5]; 10 µM 0 | [6]; 10 µM 0 | [7]; 10 µM 0 | [10]; 10 µM 0 | [8]; 10 µM 0 | [9]; 10 µM 0

CC1(C)C(=O)N([C@H]2CCc3c(O)cccc32)c2nc(Nc3cccc(CN4CCCC4)c3)ncc21
inactive: [2]; 2.5 µM 0 | [3]; 2.5 µM 0 | [4]; 2.5 µM 0 | [5]; 2.5 µM 0 | [6]; 2.5 µM 0 | [7]; 2.5 µM 0 | [10]; 2.5 µM 0 | [8]; 2.5 µM 0 | [9]; 2.5 µM 0

COc1cc(Nc2c(C#N)cnc3cc(OCCCN4CCN(C)CC4)c(OC)cc23)c(Cl)cc1Cl [Bosutinib]
inactive: [2]; 2.5 µM 0 | [3]; 2.5 µM 0 | [4]; 2.5 µM 0 | [5]; 2.5 µM 0 | [6]; 2.5 µM 0 | [7]; 2.5 µM 0 | [10]; 2.5 µM 0 | [9]; 2.5 µM 0

Cc1cnc(Nc2ccc(OCCN3CCCC3)cc2)nc1Nc1cccc(S(=O)(=O)NC(C)(C)C)c1 [Fedratinib (hydrochloride hydrate)]
inactive: [2]; 2.5 µM 0 | [3]; 2.5 µM 0 | [4]; 2.5 µM 0 | [5]; 2.5 µM 0 | [6]; 2.5 µM 0 | [7]; 2.5 µM 0 | [10]; 2.5 µM 0 | [9]; 2.5 µM 0

COc1cc2ncnc(Nc3ccc(F)c(Cl)c3)c2cc1OCCCN1CCOCC1 [Gefitinib]
inactive: [2]; 10 µM 0 | [3]; 10 µM 0 | [4]; 10 µM 0 | [5]; 10 µM 0 | [6]; 10 µM 0 | [7]; 10 µM 0 | [10]; 10 µM 0 | [8]; 10 µM 0 | [9]; 10 µM 0

C=CC(=O)Nc1cc2c(Nc3ccc(F)c(Cl)c3)ncnc2cc1OCCCN1CCOCC1 [Canertinib (dihydrochloride)]
inactive: [2]; 2.5 µM 0 | [3]; 2.5 µM 0 | [4]; 2.5 µM 0 | [5]; 2.5 µM 0 | [6]; 2.5 µM 0 | [7]; 2.5 µM 0 | [10]; 2.5 µM 0 | [9]; 2.5 µM 0

COc1cc2ncnc(Nc3cccc(Br)c3)c2cc1OC
inactive: [2]; 10 µM 0 | [3]; 10 µM 0 | [4]; 10 µM 0 | [5]; 10 µM 0 | [6]; 10 µM 0 | [7]; 10 µM 0 | [10]; 10 µM 0 | [8]; 10 µM 0 | [9]; 10 µM 0

Nc1nc(Nc2ccc(S(N)(=O)=O)cc2)nn1C(=O)c1c(F)cccc1F
inactive: [2]; 2.5 µM 0 | [3]; 2.5 µM 0 | [4]; 2.5 µM 0 | [7]; 2.5 µM 0 | [10]; 2.5 µM 0 | [9]; 2.5 µM 0

COc1cc2/c(=N/c3ccc(Br)cc3F)nc[nH]c2cc1OCC1CCN(C)CC1 [Vandetanib]
inactive: [2]; 2.5 µM 0 | [4]; 2.5 µM 0 | [6]; 2.5 µM 0 | [10]; 2.5 µM 0 | [8]; 2.5 µM 0 | [9]; 2.5 µM 0
